# PubChem BioAssay AID504786 – Drosophila RNAi Screening Center | 2011
# Screen: 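Positive regulators of HIF-driven reporter output in Drosophila cells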 (primary screen)
# Cell system: Drosophila S2 cells with a stable HIF luciferase reporter
# Reagents: long dsRNA against Drosophila genes, about 0.2 µg dsRNA per well of a 384-well plate
# Timing: three days of knock-down, then 20 h of DFO before reading
# Conditions: desferrioxamine (DFO) at 100 µM, an iron chelator that mimics hypoxia, for 20 h
# Read-out: 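HIF reporter luminescence in cells given 100 µM DFO for 20 h, using the mouse ldh-a hypoxia-response element, scored as per-plate z-scores; higher means greater loss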
# Direction: z-score: higher = stronger loss of HIF reporter signal
# In all, the deposit lists about 21,000 reagents; shown is an unselected part of those that have a named target and a result. 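Primary screen; positive scores mean lost reporter signal, so the sign may be inverted from the usual convention.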 Reagents against one gene are numbered here. Names joined by + are all predicted targets of the reagent. Not all columns of the deposit are shown.
target gene,reagent no.,"z-score, replicate 1"
PEK (pancreatic eIF-2alpha kinase),1,-0.2
CG7342,1,-0.2
d4,1,-0.2
Eaat2 (Excitatory amino acid transporter 2),1,0
Eaat2 (Excitatory amino acid transporter 2),2,-0.3
CG13917,1,-0.2
PXo (P[[i]]-sensitive XPR1 orthologue),1,-0.3
Muc18B (Mucin 18B),1,-0.3
DCP2 (Decapping protein 2),1,-0.3
CG14174,1,-0.2
Prp8 (pre-mRNA processing factor 8),1,5.3
CG14471 (retired record),1,-0.3
mRRF1 (mitochondrial ribosome recycling factor 1),1,-0.3
CG10029,1,-0.1
CG7276,1,-0.2
XNP,1,-0.1
Cypl (Cyclophilin-like),1,-0.3
Ccp84Ab,1,-0.5
bin (biniou),1,-0.2
gwl (greatwall),1,-0.2
cDIP (Common Dpr-interacting protein),1,-0.1
CG13454,1,0.7
roh (reduction of Rh1),1,1.7
CG17919,1,-0.4
Glut3 (Glucose transporter type 3),1,-0.3
CG14034,1,-0.2
Pi4KIIIalpha (Phosphatidylinositol 4-kinase III alpha),1,-0.1
Rab9Db + Rab9D + Rab9Fa + 1 more,1,-0.4
CG12321,1,-0.2
CG7509,1,-0.4
drl (derailed),1,-0.3
"DCTN1-p150 (Dynactin 1, p150 subunit)",1,-0.3
ifc (infertile crescent),1,-0.4
CG31278,1,-0.3
CG31556 (retired record),1,-0.3
MRP (Multidrug-Resistance like Protein 1),1,-0.3
CG12177,1,-0.2
cora (coracle),1,-0.2
"Arpc3A (Actin-related protein 2/3 complex, subunit 3A)",1,0.4
CG15142,1,-0.3
Tif-IA,1,-0.1
Tif-IA,2,0
Neb-cGP,1,-0.2
Npc2d (Niemann-Pick type C-2d),1,-0.2
T3dh + pgc,1,-0.4
QC (Glutaminyl cyclase),1,-0.2
Srpk79D (Serine-arginine protein kinase at 79D),1,-0.3
Srpk79D (Serine-arginine protein kinase at 79D),2,-0.3
CG31029,1,0.1
Appl (beta amyloid protein precursor-like),1,-0.2
aly (always early),1,-0.4
fz (frizzled),1,-0.3
chic (chickadee),1,-0.1
ZnT33D (Zinc transporter 33D),1,-0.1
CG12012,1,-0.3
TkR86C (Tachykinin-like receptor at 86C),1,-0.2
CG5849,1,0.7
hfw (halfway),1,-0.3
CG10903,1,0.4
fid (fire dancer),1,-0.4
fid (fire dancer),2,-0.7
lectin-46Ca,1,-0.2
CG10898,1,-0.3
Exn (Ephexin),1,-0.2
Exn (Ephexin),2,-0.2
CG12310,1,-0.1
htt (huntingtin),1,-0.2
CG5767,1,-0.2
Fen1 (Flap endonuclease 1),1,-0.3
otp (orthopedia),1,-0.5
otp (orthopedia),2,0.2
CG3939,1,-0.2
CHES-1-like (Checkpoint suppressor 1-like),1,-0.3
"Gmd (GDP-mannose 4,6-dehydratase)",1,-0.3
Cpr5C (Cuticular protein 5C),1,-0.3
CG14218,1,-0.5
CG15247,1,-0.1
Enoph (Enolase-phosphatase),1,-0.2
CG15803,1,-0.2
CG6683,1,-0.4
CG9876,1,-0.3
Irc (Immune-regulated catalase),1,-0.1
CG13731,1,-0.4

Copied from above for reference:
target gene,reagent no.,"z-score, replicate 1"
Tif-IA,2,0
Neb-cGP,1,-0.2
Npc2d (Niemann-Pick type C-2d),1,-0.2
T3dh + pgc,1,-0.4
QC (Glutaminyl cyclase),1,-0.2
Srpk79D (Serine-arginine protein kinase at 79D),1,-0.3
Srpk79D (Serine-arginine protein kinase at 79D),2,-0.3
